# In all, about 330,000 compounds went through this assay and about 7,700 (2.3%) were called active. The shares of active, inactive and inconclusive entries below differ from those in the screen. Calls follow the shape of the dose curve; as a rule, active = well fitted inhibition curve with a large enough effect; inconclusive = small, poorly fitted or top-dose-only effect, or effect the other way; inactive = flat fitted curve, though single readings scatter. A potency beside an inconclusive call is a rough fit, not a confirmed value.
# Test: qHTS screen for small molecules that inhibit ELG1-dependent DNA repair in human embryonic kidney (HEK293T) cells expressing luciferase-tagged ELG1; also: nearly all actives have a fitted effect of over 55% in size
# Details: HEK293T ELG1-luciferase reporter, luminescence, 16 h, DNA damage induced by 5-fluorouridine; series mostly up to 46.1 µM
# Procedure, shortened: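 Reporter activity after DNA damage by 5-fluorouridine is monitored. Compound-treated cells incubate 16 hr at 37 °C, then ONE-Glo is added for 30 min before luminescence reading.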
# Potency is read from the fitted curve at half-maximal effect.
row,Structure (SMILES),Potency
1,CN(CC(=O)Nc1cccc(F)c1)C(=O)c1ccc(N2CCOCC2)c([N+](=O)[O-])c1,inactive
2,C[C@H](CO)N1C[C@H](C)[C@H](CN(C)S(=O)(=O)c2cccs2)Oc2ccc(NC(=O)Nc3ccc4c(c3)OCO4)cc2CC1=O,"inconclusive: 20.6 µM [inhibitor, single point]"
3,COc1ccc(CCN(Cc2nc3ccccc3c(=O)[nH]2)C(=O)c2ccco2)cc1,"inconclusive: 18.4 µM [inhibitor, single point]"
4,CCOC(=O)c1cnc(-n2nc(C)cc2C)nc1NCc1ccc2c(c1)OCO2,active: 20.6 µM
5,O=C(Nc1nnc(-c2cccs2)o1)C1CC1,"inconclusive: 18.3 µM [activator, partial curve, poor fit]"
6,CC1=NN(c2ccccc2)C(=O)C1C=Nc1ccc(N(C)C)cc1 (centres undefined),active: 6.51 µM
7,Fc1ccc(CSc2nc3ncc(Br)cc3[nH]2)cc1,"inconclusive: 14.6 µM [activator, partial curve, poor fit]"
8,COc1cc(/C=C/C(=O)OCC(=O)NC2CC2)cc(OC)c1OC,"inconclusive: 16.4 µM [activator, partial curve, poor fit]"
9,COc1ccc(C(=O)NCC(=O)OCC(=O)Nc2cc([N+](=O)[O-])ccc2F)cc1,"inconclusive: 9.2 µM [activator, partial curve, poor fit]"
10,Cc1ccc2c(c1)C(c1ccncc1)=NNC(c1cccnc1)=N2,"inconclusive: 29.1 µM [inhibitor, single point]"
11,O=C(NCCc1c[nH]c2ccccc12)c1cc(S(=O)(=O)N2CCCCC2)ccc1N1CCOCC1,"inconclusive: 20.6 µM [inhibitor, single point]"
12,Cc1cc(Cl)ccc1OCCCC(=O)NNC(=O)c1ccccc1O,"inconclusive: 23.1 µM [inhibitor, single point]"
13,CCCCNc1nc(N(C)c2ccccc2)nc(-n2ccnc2)n1,"inconclusive: 29.1 µM [inhibitor, single point]"
14,N=c1occ(C(=O)c2cc(F)ccc2O)cc1C(=O)NC1CCCCC1,inactive
15,CC(=O)c1ccc(N2Cc3ccccc3C2=NC(=O)c2cccs2)cc1,"inconclusive: 2.31 µM [activator, full curve]"
16,O=C(c1ccc(-c2ccccc2)cc1)N1CCN(c2ncccn2)CC1,inactive
17,O=C(COC(=O)C12CC3CC(CC(O)(C3)C1)C2)Nc1ccc(Br)cc1F,"inconclusive: 14.6 µM [activator, partial curve]"
18,Cc1ccc(-n2ncc3c2CC(C)(C)CC3NC(=O)C2CCOCC2)cc1 (centres undefined),inactive
19,CCOC(=O)C1CCN(CC(=O)Nc2c(C(=O)OC)[nH]c3ccc(Cl)cc23)CC1,active: 20.6 µM
20,O=C(COC(=O)c1cccc(Cl)c1)NCc1ccccc1,"inconclusive: 3.66 µM [inhibitor, partial curve, poor fit]"
21,Cc1ccc(-c2nnc(Nc3cccc(O)c3)c3ccccc23)cc1S(=O)(=O)NCCO,inactive
22,Cc1sc2nc(SCC(=O)C(C)(C)C)n(Cc3ccco3)c(=O)c2c1C,"inconclusive: 11.6 µM [inhibitor, partial curve]"
23,CCc1c(C)nc(Nc2nc(C)c3ccc(OC)cc3n2)[nH]c1=O,"inconclusive: 20.6 µM [inhibitor, single point]"

# Gathered by group, the entries above containing four or more nitrogen atoms (10)
row,Structure (SMILES),Potency
1,CN(CC(=O)Nc1cccc(F)c1)C(=O)c1ccc(N2CCOCC2)c([N+](=O)[O-])c1,inactive
2,C[C@H](CO)N1C[C@H](C)[C@H](CN(C)S(=O)(=O)c2cccs2)Oc2ccc(NC(=O)Nc3ccc4c(c3)OCO4)cc2CC1=O,"inconclusive: 20.6 µM [inhibitor, single point]"
4,CCOC(=O)c1cnc(-n2nc(C)cc2C)nc1NCc1ccc2c(c1)OCO2,active: 20.6 µM
6,CC1=NN(c2ccccc2)C(=O)C1C=Nc1ccc(N(C)C)cc1 (centres undefined),active: 6.51 µM
10,Cc1ccc2c(c1)C(c1ccncc1)=NNC(c1cccnc1)=N2,"inconclusive: 29.1 µM [inhibitor, single point]"
11,O=C(NCCc1c[nH]c2ccccc12)c1cc(S(=O)(=O)N2CCCCC2)ccc1N1CCOCC1,"inconclusive: 20.6 µM [inhibitor, single point]"
13,CCCCNc1nc(N(C)c2ccccc2)nc(-n2ccnc2)n1,"inconclusive: 29.1 µM [inhibitor, single point]"
16,O=C(c1ccc(-c2ccccc2)cc1)N1CCN(c2ncccn2)CC1,inactive
21,Cc1ccc(-c2nnc(Nc3cccc(O)c3)c3ccccc23)cc1S(=O)(=O)NCCO,inactive
23,CCc1c(C)nc(Nc2nc(C)c3ccc(OC)cc3n2)[nH]c1=O,"inconclusive: 20.6 µM [inhibitor, single point]"

# 2 entries from above, bar-delimited:
row | Structure (SMILES) | Potency
20 | O=C(COC(=O)c1cccc(Cl)c1)NCc1ccccc1 | inconclusive: 3.66 µM [inhibitor, partial curve, poor fit]
21 | Cc1ccc(-c2nnc(Nc3cccc(O)c3)c3ccccc23)cc1S(=O)(=O)NCCO | inactive

# More results follow:

row,Structure (SMILES),Potency
1,CCOc1ccc(S(=O)(=O)N2CCN(C)CC2)cc1NC(=O)c1ccccc1F,inactive
2,S=C(NCc1ccc(Cl)cc1)NC1CCN(Cc2ccccc2)CC1,active: 18.3 µM
3,CC(NC(=S)Nc1ccc([N+](=O)[O-])cc1)c1ccncc1 (centres undefined),"inconclusive: 25.9 µM [inhibitor, single point]"
4,CCCCCC(=O)Nc1nc(C)c(-c2csc(Nc3ccccc3OCC)n2)s1,inactive
5,CC(NC(=O)CCc1nnc(CCCc2ccccc2)o1)c1ccccc1 (centres undefined),"inconclusive: 18.3 µM [activator, partial curve]"
6,CC1=NNC(=O)C1CC(=O)N/N=C/c1sccc1C (centres undefined),"inconclusive: 20.6 µM [activator, single point]"
7,C=C(Cl)COc1ccc2c(C)cc(=O)oc2c1,"inconclusive: 18.4 µM [activator, single point]"
8,CC(C)C(=O)N1CCN(c2ccc(NC(=O)c3ccc(Br)o3)cc2)CC1,inactive
9,CC(=O)Nc1ccc(NC(=O)C(C)OC(=O)CNC(=O)c2cccs2)cc1 (centres undefined),"inconclusive: 5.8 µM [activator, single point]"
10,CCC(NC(=O)CCc1nnc(-c2cc(C)on2)o1)C12CC3CC(CC(C3)C1)C2 (centres undefined),inactive
11,COc1cccc(CN(C)C(=O)CCNC(=O)c2ccc(Br)cc2)c1,inactive
12,O=C(NC1CCCCCC1)c1cc(S(=O)(=O)N2CCC3(CC2)OCCO3)ccc1F,"inconclusive: 29.1 µM [inhibitor, partial curve, poor fit]"
13,NS(=O)(=O)c1ccc(NC(=O)/C=C/c2cn(-c3ccccc3)nc2-c2cccc(Cl)c2)cc1,"inconclusive: 23.1 µM [inhibitor, single point]"
14,COCC(C)N1CCC(Oc2cccc(C(=O)NCCc3ccccc3)c2)CC1 (centres undefined),"inconclusive: 20.6 µM [activator, partial curve]"
15,O=C(OCc1ccc2c(c1)OCO2)c1ccc(S(=O)(=O)N2CCCC2)cc1,inactive
16,CSc1nnc(-c2ccc(C(F)(F)F)cn2)o1,"inconclusive: 29.1 µM [activator, single point]"
17,Fc1cc(F)cc(-c2c(-c3ccccc3)ncc3ccc(F)cc23)c1,inactive
18,CC(=O)Nc1ccc(S(=O)(=O)N2CCN(C)CC2)cc1,inactive
19,COc1ccccc1C(=O)NCC(=O)N/N=C/c1cn[nH]c1-c1ccccc1,"inconclusive: 20.6 µM [inhibitor, single point]"
20,O=C1c2ccccc2-c2nnc(-c3ccccc3)cc21,"inconclusive: 2.91 µM [activator, partial curve]"
21,CCOC(=O)Cc1c(C)nc2c(-c3ccc(Cl)cc3)c[nH]n2c1=O,"inconclusive: 4.61 µM [inhibitor, partial curve, poor fit]"
22,COC(=O)c1cc2c(-c3ccccc3)cc3ccccn3c-2c1C(=O)OC,active: 23.1 µM
23,CC(=O)Nc1ccc(SCC(=O)O)cc1,inactive

row,Structure (SMILES),Potency
1,CCCOc1ccc(/C=N/Nc2ccc(C(=O)O)cc2)c(OCCC)c1,"inconclusive: 16.4 µM [activator, partial curve]"
2,O=S(=O)(Nc1nc2ccccc2nc1Cl)c1ccccc1C(F)(F)F,"inconclusive: 18.3 µM [inhibitor, partial curve]"
3,CSc1nc2ccc(S(=O)(=O)Nc3c(C)n(C)n(-c4ccccc4)c3=O)cc2s1,"inconclusive: 20 µM [inhibitor, single point]"
4,O=C(NCC(c1cccnc1)N1CCN(c2ccc(F)cc2)CC1)c1ccc(F)cc1 (centres undefined),"inconclusive: 25.1 µM [inhibitor, single point]"
5,CCc1ccc2c(c1)c1nnc(NN)nc1n2C,inactive
6,O=C(Nc1nc(-c2ccc(S(=O)(=O)N3CCCC3)cc2)cs1)C1COc2ccccc2O1 (centres undefined),"inconclusive: 4.61 µM [inhibitor, single point]"
7,COc1ccc(OC)c(-n2c(SCC(=O)N3CCc4ccccc43)nc3c(c2=O)SCC3)c1,"inconclusive: 29.1 µM [inhibitor, single point]"
8,Cc1ccc2nc3c(cc2c1)CN(Cc1ccco1)C(=NCC1CCCO1)S3 (centres undefined),"inconclusive: 18.4 µM [inhibitor, single point]"
9,COc1ccc2oc(=O)c(C(=O)OCc3ccccc3)cc2c1,inactive
10,CCCCN(C(=O)c1ccc(NC2CC2)c([N+](=O)[O-])c1)c1c(N)n(CC(C)C)c(=O)[nH]c1=O,inactive
11,COc1ccc(CCNC(=O)C(=O)NCCC2CCCCN2S(=O)(=O)c2cccs2)cc1 (centres undefined),"inconclusive: 29.1 µM [inhibitor, single point]"
12,CN1CCN(C(=O)c2ccc(CNS(=O)(=O)c3cccc(Cl)c3)cc2)CC1,inactive
13,CCN(CC)C(=O)CSc1nnc(-c2cc(-c3ccc(Cl)cc3)nc3ccccc23)o1,"inconclusive: 5.8 µM [inhibitor, partial curve, poor fit]"
14,CC(=O)c1ccc(NC(=O)NC2CCCCCCC2)cc1,"inconclusive: 8.2 µM [activator, partial curve]"
15,CC(CN1CCOCC1)OC(=O)c1ccc(C(C)(C)C)cc1 (centres undefined),"inconclusive: 0.794 µM [activator, partial curve, poor fit]"
16,CC#CC(=O)N1CCC(C(=O)Nc2ccc(Oc3ccccc3)nc2)CC1,"inconclusive: 16.4 µM [activator, single point]"
17,O=C(Nc1cc2c(oc1=O)CCCC2=O)c1ccccc1,"inconclusive: 18.4 µM [activator, single point]"
18,COc1ccc(C(=O)N2CCN(c3ccc(C(C)=O)cc3F)CC2)cc1S(=O)(=O)NC1CC1,"inconclusive: 18.3 µM [activator, partial curve]"
19,Cc1cc(=O)n2[nH]c(-c3ccccc3Cl)cc2n1,inactive
20,Cc1cccc(NC(=S)NNC(=O)c2nn(C)cc2Cl)c1,"inconclusive: 29.1 µM [activator, single point]"
21,CC(C)(CN1CCOCC1)NS(=O)(=O)c1ccccc1,inactive
22,CC1=NN(Cc2ccccc2)C(=O)C1C(c1ccccc1)C(C#N)C#N (centres undefined),"inconclusive: 29.1 µM [activator, partial curve, poor fit]"
23,O=C(CCCN1C(=O)C2CCCCN2C1=O)N1CCN(c2ccc([N+](=O)[O-])cc2)CC1 (centres undefined),"inconclusive: 29.1 µM [inhibitor, single point]"

# Source: PubChem BioAssay AID504467 (National Center for Advancing Translational Sciences (NCATS), 2011)
